Data reported in patent publication US20250064886A1, “CARDIOVASCULAR AND CEREBROVASCULAR DRUG AND USE THEREOF” (HANGZHOU ADAMERCK PHARMLABS INC., priority 2021, published 2025).
Some entries share one result that the patent states for a list of compounds. At least one compound was matched to its structure with a doubt left.

Legend:
Assay type in all cases: cell-based, rat
[1] = tested on: Erastin-induced neuronal cells; assay: Cell viability (CCK8) of Erastin-induced neuronal cells (Example 8); details: p<0.05
Method: (§1) Experimental method: Primary neuron cells were incubated in a medium containing Erastin (final concentration of 50 μM) for 24 hours, and then incubated in a medium containing different concentrations of the test drug and Erastin (final concentration of 50 μM) for another 24 hours. After incubation, Real time PCR was used to detect mRNA expression of GPX4 in each group of cells, CCK8 assay was used to detect cell viability in each group of cells, C11-BODIPY probe method was used to detect intracellular lipid ROS levels in each group of cells, and PGSK probe method was used to detect iron content in cells.
(§2) The experimental data were expressed in means±SD, and statistical differences between groups were determined using one-way ANOVA and Tukey's test, with p-values less than 0.05 considered significant.
After incubation, the CCK8 experiment was used to detect the cell viability of each group of cells. The results were presented as Mean±SD. Compared with control group, ***p<0.0001. Compared with model control group, ^#P<0.05, ^##P<0.01.

[2] = tested on: lipid ROS levels in Erastin-induced nerve cells; assay: Lipid ROS levels (C11-BODIPY probe) in Erastin-induced nerve cells (Example 8)
Method: as §1, §2
After incubation, the C11-BODIPY probe method was used to detect the lipid ROS levels in each group of cells. The results were presented as Mean±SD. Compared with the control group, ***p<0.0001; compared with the model group, #p<0.05, ##p<0.01.

[3] = tested on: iron content in Erastin-induced neuronal cells; assay: Iron content (PGSK probe) in Erastin-induced neuronal cells (Example 8); details: p<0.05
Method: as §1, §2
After incubation, the PGSK probe method was used to detect the intracellular iron content. The results were presented as Mean±SD. Compared with the control group, ***p<0.0001; Compared with the model group, #p<0.05, ##p<0.01.

GPX4 mRNA = GPX4 mRNA expression (real time PCR) in Erastin-induced neuronal cells (Example 8)
Method: as §1, §2
After incubation, real time PCR was used to detect the mRNA expression of GPX4 in each group of cells. The results were presented as Mean±SD. Compared with the control group, ***p<0.0001; Compared with the model group, #p<0.05, […].

Row | Structure (SMILES) | Concentration above which cell viability was significantly increased compared with the model group [1] | Concentration above which intracellular lipid ROS levels decreased significantly compared with the model group [2] | Concentration above which intracellular iron content was significantly decreased compared with the model group [3] | Concentration above which cellular GPX4 mRNA expression level was significantly elevated compared with the model group (GPX4 mRNA)
1 | CC(=O)N[C@H](CSCC1OC2OC3C(CSC[C@@H](NC(C)=O)C(=O)[O-])OC(OC4C(CSC[C@@H](NC(C)=O)C(=O)[O-])OC(OC5C(CSC[C@@H](NC(C)=O)C(=O)[O-])OC(OC6C(CSC[C@@H](NC(C)=O)C(=O)[O-])OC(OC7C(CSC[C@@H](NC(C)=O)C(=O)[O-])OC(OC8C(CSC[C@@H](NC(C)=O)C(=O)[O-])OC(OC1C(O)C2O)C(O)C8O)C(O)C7O)C(O)C6O)C(O)C5O)C(O)C4O)C(O)C3O)C(=O)[O-].[Na+].[Na+].[Na+].[Na+].[Na+].[Na+].[Na+] (some centres unmarked) [Compound (5)] | greater than 5 μM | greater than 5 μM | greater than 5 μM | greater than 2.5 μM
2 | CC(=O)N[C@H](CSCC1OC2OC3C(CSC[C@@H](NC(C)=O)C(=O)[O-])OC(OC4C(CSC[C@@H](NC(C)=O)C(=O)[O-])OC(OC5C(CSC[C@@H](NC(C)=O)C(=O)[O-])OC(OC6C(CSC[C@@H](NC(C)=O)C(=O)[O-])OC(OC7C(CSC[C@@H](NC(C)=O)C(=O)[O-])OC(OC8C(CSC[C@@H](NC(C)=O)C(=O)[O-])OC(OC9C(CSC[C@@H](NC(C)=O)C(=O)[O-])OC(OC1C(O)C2O)C(O)C9O)C(O)C8O)C(O)C7O)C(O)C6O)C(O)C5O)C(O)C4O)C(O)C3O)C(=O)[O-].[Na+].[Na+].[Na+].[Na+].[Na+].[Na+].[Na+].[Na+] (some centres unmarked) [Compound (1)] | greater than 5 μM |  |  | 
